Assay results as given in article doi:10.1101/825018.
No constants are given. Whether binding was seen depends on the method and setting. In cells and extracts the contact can be indirect. Binding calls can cover weak binding; strength is not graded here. Sequences can lack the tags named with a protein.

Chains of the proteins cited; added tags and fusions are not shown. Lines headed by an entry give the natural chain unless they say otherwise; changes in a name come on top. Residues count along the entry.
UniProt P60852: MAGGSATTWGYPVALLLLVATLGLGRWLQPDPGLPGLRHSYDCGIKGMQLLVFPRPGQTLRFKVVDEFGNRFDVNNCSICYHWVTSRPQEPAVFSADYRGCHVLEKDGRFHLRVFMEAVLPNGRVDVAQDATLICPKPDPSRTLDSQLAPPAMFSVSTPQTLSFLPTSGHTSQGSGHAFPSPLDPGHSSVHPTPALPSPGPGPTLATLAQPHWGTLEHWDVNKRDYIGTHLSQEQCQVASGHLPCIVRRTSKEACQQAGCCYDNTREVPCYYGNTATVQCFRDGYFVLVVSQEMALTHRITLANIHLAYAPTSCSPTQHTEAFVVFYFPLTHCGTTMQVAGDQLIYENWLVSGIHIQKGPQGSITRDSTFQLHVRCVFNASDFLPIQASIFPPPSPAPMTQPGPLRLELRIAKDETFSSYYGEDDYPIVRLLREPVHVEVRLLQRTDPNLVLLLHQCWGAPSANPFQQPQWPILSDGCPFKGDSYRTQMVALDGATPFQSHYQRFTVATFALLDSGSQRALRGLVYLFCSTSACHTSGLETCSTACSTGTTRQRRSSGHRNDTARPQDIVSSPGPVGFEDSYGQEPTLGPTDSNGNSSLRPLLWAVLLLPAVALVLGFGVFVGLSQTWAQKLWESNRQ
UniProt Q05996, residues 39-640: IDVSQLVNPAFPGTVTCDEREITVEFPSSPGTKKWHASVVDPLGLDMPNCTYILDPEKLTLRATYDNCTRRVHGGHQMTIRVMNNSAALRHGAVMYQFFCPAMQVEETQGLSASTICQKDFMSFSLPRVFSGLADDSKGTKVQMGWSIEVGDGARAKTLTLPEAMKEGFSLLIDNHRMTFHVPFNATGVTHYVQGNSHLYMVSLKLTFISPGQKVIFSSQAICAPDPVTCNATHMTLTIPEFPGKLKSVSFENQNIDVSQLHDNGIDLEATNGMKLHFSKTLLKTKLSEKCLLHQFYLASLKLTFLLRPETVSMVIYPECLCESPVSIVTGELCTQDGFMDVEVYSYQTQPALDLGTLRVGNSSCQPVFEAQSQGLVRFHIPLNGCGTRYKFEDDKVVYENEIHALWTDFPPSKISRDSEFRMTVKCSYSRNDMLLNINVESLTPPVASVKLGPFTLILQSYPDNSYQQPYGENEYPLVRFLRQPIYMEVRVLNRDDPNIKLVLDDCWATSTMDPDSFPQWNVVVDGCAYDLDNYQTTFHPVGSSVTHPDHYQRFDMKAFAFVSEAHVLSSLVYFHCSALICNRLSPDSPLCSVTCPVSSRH

Target: ZP1^MT (I390fs404X), truncated ZP1 (human) (UniProt P60852)
Assay: co-IP

binding | Molecule
no binding | ZP2 (zona pellucida glycoprotein 2) (from UniProt Q05996 39-640)
binds | ZP4 (zona pellucida glycoprotein 4) (protein, UniProt Q12836 19-462) GQHKPEAPDYSSVLHCGPWSFQFAVNLNQEATSPPVLIAWDNQGLLHELQNDSDCGTWIRKGPGSSVVLEATYSSCYVTEWDSHYIMPVGVEGAGAAEHKVVTERKLLKCPMDLLARDAPDTDWCDSIPARDRLPCAPSPISRGDCEGLGCCYSSEEVNSCYYGNTVTLHCTREGHFSIAVSRNVTSPPLLLDSVRLALRNDSACNPVMATQAFVLFQFPFTSCGTTRQITGDRAVYENELVATRDVKNGSRGSVTRDSIFRLHVSCSYSVSSNSLPINVQVFTLPPPFPETQPGPLTLELQIAKDKNYGSYYGVGDYPVVKLLRDPIYVEVSILHRTDPYLGLLLQQCWATPSTDPLSQPQWPILVKGCPYIGDNYQTQLIPVQKALDLPFPSHHQRFSIFTFSFVNPTVEKQALRGPVHLHCSVSVCQPAETPSCVVTCPDL
binds | ZP3 (zona pellucida glycoprotein 3) (protein, UniProt P21754 23-350) QPLWLLQGGASHPETSVQPVLVECQEATLMVMVSKDLFGTGKLIRAADLTLGPEACEPLVSMDTEDVVRFEVGLHECGNSMQVTDDALVYSTFLLHDPRPVGNLSIVRTNRAEIPIECRYPRQGNVSSQAILPTWLPFRTTVFSEEKLTFSLRLMEENWNAEKRSPTFHLGDAAHLQAEIHTGSHVPLRLFVDHCVATPTPDQNASPYHTIVDFHGCLVDGLTDASSAFKVPRPGPDTLQFTVDVFHFANDSRNMIYITCHLKVTLAEQDPDELNKACSFSKPSNSWFPVEGSADICQCCNKGDCGTPSHSRRQPHVMSQWSRSASRN
